Binding data for one molecule are collected here from publication PMC9139780.

Chains of the proteins cited; added tags and fusions are not shown.
UniProt Q04206: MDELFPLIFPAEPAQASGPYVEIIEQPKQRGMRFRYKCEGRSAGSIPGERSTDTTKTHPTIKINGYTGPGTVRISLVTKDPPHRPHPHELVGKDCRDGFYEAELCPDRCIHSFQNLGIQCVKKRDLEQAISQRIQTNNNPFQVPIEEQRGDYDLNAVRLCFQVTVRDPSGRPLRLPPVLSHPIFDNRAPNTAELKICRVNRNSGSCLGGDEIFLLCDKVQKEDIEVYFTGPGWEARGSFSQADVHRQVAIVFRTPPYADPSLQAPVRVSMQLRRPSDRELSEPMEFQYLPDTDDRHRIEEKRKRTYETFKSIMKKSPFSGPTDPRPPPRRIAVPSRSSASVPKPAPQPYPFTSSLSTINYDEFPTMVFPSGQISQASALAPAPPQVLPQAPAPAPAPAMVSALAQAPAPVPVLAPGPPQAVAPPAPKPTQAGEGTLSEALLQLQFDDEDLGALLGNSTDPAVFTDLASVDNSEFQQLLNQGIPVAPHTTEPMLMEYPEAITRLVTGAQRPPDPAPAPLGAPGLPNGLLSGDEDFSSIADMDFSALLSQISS

Results are given in words; binding and its absence hold for the method and conditions named. Binding seen in cells or lysates may run through a third protein. Some entries that bind do so weakly or less than the wild type.

This experiment addresses NF-κB p65 (human (endogenous in AC16)) (UniProt Q04206). The experiment can be described thus: co-IP; AC16 cells stimulated with TNF-α (20 ng/mL) for 24 h with or without calcitriol (100 nM); lysates immunoprecipitated with anti-p65 antibodies, blotted with anti-VDR and anti-p65 antibodies.

B1: Vitamin D receptor (protein, UniProt P11473 1-427)
chain: MEAMAASTSLPDPGDFDRNVPRICGVCGDRATGFHFNAMTCEGCKGFFRRSMKRKALFTCPFNGDCRITKDNRRHCQACRLKRCVDIGMMKEFILTDEEVQRKREMILKRKEEEALKDSLRPKLSEEQQRIIAILLDAHHKTYDPTYSDFCQFRPPVRVNDGGGSHPSRPNSRHTPSFSGDSSSSCSDHCITSSDMMDSSSFSNLDLSEEDSDDPSVTLELSQLSMLPHLADLVSYSIQKVIGFAKMIPGFRDLTSEDQIVLLKSSAIEVIMLRSNESFTMDDMSWTCGNQDYKYRVSDVTKAGHSLELIEPLIKFQVGLKKLNLHEEEHVLLMAICIVSPDRPGVQDAALIEAIQDRLSNTLQTYIRCRHPPPGSHLLYAKMIQKLADLRSLNEEHSKQYRCLSFQPECSMKLTPLVLEVFGNEIS
In the case of B1, the binding result is reported as “binds”.
